Assay results from PubChem BioAssay (NCATS).
Inconclusive means that the source gave no clear call. Such entries were picked first, then a sample of the others. For part of these data: A potency beside an inconclusive call is a rough fit, not a confirmed value. The source made the active and inactive calls. Unless noted, calls come from the whole dose curve; as a rule, active = well fitted curve in the direction sought with a large enough effect; inconclusive = small, poorly fitted or top-dose-only effect, or another doubt; inactive = no such curve, though single readings can be large; an effect the other way counts as inactive or inconclusive.

Amino acid sequences for entries named in this document (tags omitted). A change or cut given only in a name is not applied to a line headed by its entry.
UniProt P08684, whole entry, looked up: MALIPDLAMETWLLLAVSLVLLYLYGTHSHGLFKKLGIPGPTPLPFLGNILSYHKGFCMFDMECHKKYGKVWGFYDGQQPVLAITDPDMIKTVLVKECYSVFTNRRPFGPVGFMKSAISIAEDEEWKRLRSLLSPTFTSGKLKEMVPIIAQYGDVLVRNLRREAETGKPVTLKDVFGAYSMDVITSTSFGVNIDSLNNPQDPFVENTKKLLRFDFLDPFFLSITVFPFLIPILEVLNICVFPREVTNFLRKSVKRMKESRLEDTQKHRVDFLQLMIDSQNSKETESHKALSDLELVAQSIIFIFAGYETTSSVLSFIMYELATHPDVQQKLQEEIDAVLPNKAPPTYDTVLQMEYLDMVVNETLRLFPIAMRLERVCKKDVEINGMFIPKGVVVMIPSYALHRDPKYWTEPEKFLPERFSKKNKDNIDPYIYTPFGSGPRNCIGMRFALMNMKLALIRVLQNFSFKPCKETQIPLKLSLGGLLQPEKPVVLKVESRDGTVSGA
UniProt P10635, whole entry, looked up: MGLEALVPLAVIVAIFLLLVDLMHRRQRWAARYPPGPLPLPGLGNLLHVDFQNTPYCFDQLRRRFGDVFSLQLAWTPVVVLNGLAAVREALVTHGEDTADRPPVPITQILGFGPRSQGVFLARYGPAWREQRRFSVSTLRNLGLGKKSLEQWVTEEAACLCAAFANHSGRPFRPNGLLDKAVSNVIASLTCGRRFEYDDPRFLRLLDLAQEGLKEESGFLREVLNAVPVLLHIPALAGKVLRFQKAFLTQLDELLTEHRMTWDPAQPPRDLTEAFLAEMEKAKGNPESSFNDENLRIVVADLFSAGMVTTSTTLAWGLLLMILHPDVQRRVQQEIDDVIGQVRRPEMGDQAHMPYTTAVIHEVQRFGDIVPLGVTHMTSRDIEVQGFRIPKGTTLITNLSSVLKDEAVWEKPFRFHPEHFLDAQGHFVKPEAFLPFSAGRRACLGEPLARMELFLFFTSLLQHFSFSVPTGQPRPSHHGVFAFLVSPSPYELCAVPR
UniProt P11712, whole entry, looked up: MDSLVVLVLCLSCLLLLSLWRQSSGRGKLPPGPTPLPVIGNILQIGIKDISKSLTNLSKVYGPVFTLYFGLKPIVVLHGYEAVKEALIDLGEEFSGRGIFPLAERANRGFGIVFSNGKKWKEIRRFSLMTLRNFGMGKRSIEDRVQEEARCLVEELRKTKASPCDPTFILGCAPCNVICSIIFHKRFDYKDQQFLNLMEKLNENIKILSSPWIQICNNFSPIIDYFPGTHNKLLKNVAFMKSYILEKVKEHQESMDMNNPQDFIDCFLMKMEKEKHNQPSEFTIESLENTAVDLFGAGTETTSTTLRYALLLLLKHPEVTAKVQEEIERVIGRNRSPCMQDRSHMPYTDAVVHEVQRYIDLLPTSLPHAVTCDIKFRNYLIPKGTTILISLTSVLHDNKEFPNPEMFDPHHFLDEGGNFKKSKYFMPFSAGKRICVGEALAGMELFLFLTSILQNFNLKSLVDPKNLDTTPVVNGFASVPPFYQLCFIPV
UniProt O75469: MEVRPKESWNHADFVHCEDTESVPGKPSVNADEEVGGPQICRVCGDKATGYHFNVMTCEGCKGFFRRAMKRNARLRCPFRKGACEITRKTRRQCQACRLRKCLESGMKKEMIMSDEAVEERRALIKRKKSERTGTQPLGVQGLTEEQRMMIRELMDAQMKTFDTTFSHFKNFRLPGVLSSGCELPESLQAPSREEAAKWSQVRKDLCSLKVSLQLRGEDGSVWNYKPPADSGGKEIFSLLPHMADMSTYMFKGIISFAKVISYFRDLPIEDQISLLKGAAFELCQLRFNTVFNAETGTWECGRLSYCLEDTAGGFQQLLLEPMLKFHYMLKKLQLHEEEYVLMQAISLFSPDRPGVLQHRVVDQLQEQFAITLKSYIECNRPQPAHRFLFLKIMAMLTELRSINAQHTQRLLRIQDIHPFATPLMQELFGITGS

How the values were obtained:
[1] = Quantitative High-Throughput drug screen in 47 multiple myeloma cell lines against the NCATS MIPE library collection: VP6_DJ cell viability assay (AID 1919867); note: nearly all actives have a fitted effect of over 40% in size; note: potency is the fitted concentration of half-maximal effect
How it was run: (§1)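 ATP-based luminescence (CellTiter-Glo, 5 min RT incubation) quantified surviving cells following two days' treatment with MIPE 4.0 agents at 37 °C, 5% CO2.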

[2] = Quantitative High-Throughput drug screen in 47 multiple myeloma cell lines against the NCATS MIPE library collection: UTMC2_PLB cell viability assay (AID 1919868); details: CellTiter-Glo ATP luminescence, 48 h; series mostly up to 45.8 µM; note: nearly all actives have a fitted effect of over 55% in size; note: potency is the fitted concentration of half-maximal effect
How it was run: as §1

[3] = Quantitative High-Throughput drug screen in 47 multiple myeloma cell lines against the NCATS MIPE library collection: RPMI8226_ATCC cell viability assay (AID 1919871); details: RPMI8226 myeloma viability, CellTiter-Glo ATP luminescence, 48 h; series mostly up to 45.8 µM; note: nearly all actives have a fitted effect of over 30% in size; note: potency is the fitted concentration of half-maximal effect
How it was run: as §1

[4] = test system: 7G8; assay: qHTS profiling for inhibitors of Plasmodium falciparum proliferation (AID 504749); note: nearly all actives have a fitted effect of over 60% in size; note: potency is the fitted concentration of half-maximal effect; details: P. falciparum in erythrocytes, SYBR Green DNA, 72 h; series mostly up to 28.7 µM
How it was run: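 In a 72 h erythrocytic culture (37 C, humidified, 5% CO2) at 2.5% hematocrit and 0.3% starting parasitemia, compounds were tested; SYBR Green I in detergent lysis buffer stained parasite DNA overnight.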

[5] = Quantitative High-Throughput drug screen in 47 multiple myeloma cell lines against the NCATS MIPE library collection: OPM2_DSMZ cell viability assay (AID 1919872); note: nearly all actives have a fitted effect of over 30% in size; note: potency is the fitted concentration of half-maximal effect
How it was run: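 CellTiter-Glo luminescence (ATP) after 48 h compound exposure, 37C/5% CO2; 500 cells/well; MIPE 4.0 approved/investigational drugs pinned in; DMSO = 100%, media only = 0% viability.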

[6] = qHTS for identification of novel therapeutic agents for treatment of microphthalmiaassociated transcription factor (MiT) renal cell carcinoma (RCC) (AID 1963991; calls by dose curve; note: potency is the fitted concentration of half-maximal effect); details: TFE3-RCC UOK109 viability, CellTiter-Glo, 48 h; active = Z-AUC below -0.8 in all three lines
How it was run: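 Three TFE3-fusion RCC cell lines (UOK109, UOK124, UOK145), 500 cells/well, were exposed to the 1912-compound MIPE 4.0 library for 48 hours at 37 C. Viability was read by CellTiter-Glo luminescence, normalised to DMSO (100%) and empty wells (0%), with 11-concentration curve fits.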

[7] = Quantitative High-Throughput drug screen in 47 multiple myeloma cell lines against the NCATS MIPE library collection: KMS11_JCRBsus cell viability assay (AID 1919873); note: nearly all actives have a fitted effect of over 50% in size; note: potency is the fitted concentration of half-maximal effect
How it was run: as §1

[8] = Quantitative High-Throughput drug screen in 47 multiple myeloma cell lines against the NCATS MIPE library collection: PCM6_Riken cell viability assay (AID 1919870); note: nearly all actives have a fitted effect of over 30% in size; note: potency is the fitted concentration of half-maximal effect
How it was run: as §1

[9] = Quantitative High-Throughput drug screen in 47 multiple myeloma cell lines against the NCATS MIPE library collection: KMS28BM_JCRB cell viability assay (AID 1919874); details: CellTiter-Glo ATP, 48 h; series mostly up to 45.8 µM; note: potency is the fitted concentration of half-maximal effect; nearly all actives have a fitted effect of over 35% in size
How it was run: as §1

[10] = molecular target: Cytochrome P450 3A4 (Homo sapiens) (UniProt P08684); assay: qHTS for inhibitors of CYP3A4 against the NCATS DSHEA and TCM libraries (AID 1919971);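 note: inhibition lowers luminescence from luciferin made by CYP3A4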
How it was run: (§2)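 Substances were tested against enzyme with a pro-luciferin substrate; minus-enzyme wells served as background. After NADPH-initiated oxidation (30-45 min, RT), light was generated with P450-Glo reagent.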

[11] = molecular target: Cytochrome P450 2D6 (Homo sapiens) (UniProt P10635); assay: qHTS for inhibitors of CYP2D6 against the NCATS DSHEA and TCM libraries (AID 1919972); note: potency is the fitted concentration of half-maximal effect
How it was run: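 qHTS, concentration–response format with most substances from 19.5 nM. CYP2D6 + pro-luciferin substrate, 15 min with compound, then 1x NADPH regen, 30–45 min RT dark. Glo detection 30 min, luminescence. Quinidine control.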

[12] = molecular target: Cytochrome P450 2C9 (Homo sapiens) (UniProt P11712); assay: qHTS for inhibitors of CYP2C9 against the NCATS DSHEA and TCM libraries (AID 1919973); note: potency is the fitted concentration of half-maximal effect
How it was run: as §2

[13] = molecular target: Nuclear receptor subfamily 1 group I member 2 (Homo sapiens) (UniProt O75469); assay: Dual reporter qHTS for agonist of Pregnane X Receptor (hPXR) against the NCATS DSHEA and TCM libraries: Luminescence readout (AID 1920059); note: potency is the fitted concentration of half-maximal effect
How it was run: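 Luminescent PXR reporter read (ONE-Glo) after a CellTiter-Fluor viability read, following 24 h, 37C treatment of HepG2 cells stably carrying hPXR-Luc.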

In the case of `Nc1ccc(S(=O)(=O)Nc2ccccn2)cc1`, the Potency [1] is reported as “inactive”, the Potency [2] is reported as inconclusive: 0.0132 µM [rising, full curve, poor fit] and the Potency [3] is reported as inconclusive: 0.0074 µM [rising, full curve, poor fit]. The Potency [4] was “inactive”.

In the case of `COc1cc2ncnc(Nc3ccc(F)c(Cl)c3)c2cc1NC(=O)C=CCN1CCCCC1`, the Potency [1] is reported as active: 5.9 µM, the Potency [2] is reported as active: 10.5 µM and the Potency [3] is reported as active: 18.7 µM. For the same compound, the Potency [5] was inconclusive: 29.6 µM [cytotoxic, single point] and the Potency [6] was inconclusive: 23.5 µM [falling, single point].

For `COc1nc(C)cnc1NS(=O)(=O)c1cccnc1-c1ccc(-c2nnco2)cc1`, the Potency [1] was “inactive”, the Potency [2] was “inactive” and the Potency [3] was “inactive”. The Potency [5] was “inactive” and the Potency [7] was “inactive”.

With `CCN1CCCC1CNC(=O)c1cc(S(=O)(=O)CC)c(N)cc1OC` (stereo not drawn) the Potency [1] was “inactive”, the Potency [2] was “inactive” and the Potency [8] was “inactive”. The Potency [7] was “inactive”.

For `O=C(O)CCc1ccc(NCc2cccc(Oc3ccccc3)c2)cc1`, the Potency [1] was “inactive”, the Potency [2] was inconclusive: 33.2 µM [cytotoxic, single point] and the Potency [3] was “inactive”. For the same compound, the Potency [7] was “inactive”.

For `CCOc1cc(C(=O)Nc2ccc(Cl)c(-c3nc4ccccc4[nH]3)c2)cc(OCC)c1OCC`, the Potency [1] was inconclusive: 10.5 µM [cytotoxic, partial curve, poor fit], the Potency [2] was “inactive” and the Potency [8] was inconclusive: 0.0118 µM [cytotoxic, full curve, poor fit]. The Potency [5] was inconclusive: 20.9 µM [cytotoxic, single point], the Potency [7] was inconclusive: 10.5 µM [cytotoxic, full curve] and the Potency [6] was inconclusive: 4.18 µM [falling, partial curve].

With `COc1nc(N)nc2c1ncn2[C@@H]1O[C@H](CO)[C@@H](O)[C@@H]1O` the Potency [1] was “inactive”, the Potency [2] was inconclusive: 0.0033 µM [rising, full curve, poor fit] and the Potency [8] was “inactive”. For the same compound, the Potency [5] was active: 0.469 µM and the Potency [4] was inconclusive: 10 µM [inhibitor, partial curve].

In the case of `CC(=O)SC[C@@H](C)C(=O)N1CCC[C@H]1C(=O)N[C@@H](Cc1ccccc1)C(=O)O`, the Potency [1] is reported as inconclusive: 0.0105 µM [rising, full curve, poor fit], the Potency [2] is reported as inconclusive: 0.0012 µM [rising, full curve, poor fit] and the Potency [8] is reported as “inactive”. For the same compound, the Potency [5] was inconclusive: 2.35 µM [cytotoxic, partial curve, poor fit], the Potency [7] was “inactive” and the Potency [6] was inconclusive: 20.9 µM [falling, single point].

In the case of `COc1ccc(CCN(C)CCCOc2ccc(S(=O)(=O)c3[nH]c4ccccc4c3C(C)C)cc2)cc1OC`, the Potency [1] is reported as inconclusive: 23.5 µM [cytotoxic, partial curve, poor fit], the Potency [2] is reported as “inactive” and the Potency [8] is reported as inconclusive: 23.5 µM [cytotoxic, single point]. The Potency [7] was inconclusive: 37.2 µM [cytotoxic, single point], the Potency [9] was active: 13.2 µM and the Potency [6] was inconclusive: 11.8 µM.

With `CC(C)(F)C[C@H](N[C@@H](c1ccc(-c2ccc(S(C)(=O)=O)cc2)cc1)C(F)(F)F)C(=O)NC1(C#N)CC1` the Potency [1] was “inactive”, the Potency [2] was inconclusive: 0.0012 µM [cytotoxic, full curve, poor fit] and the Potency [8] was “inactive”. For the same compound, the Potency [7] was “inactive” and the Potency [6] was inconclusive: 66.2 µM.

With `CCC(c1ccc(O)cc1)C(CC)c1ccc(O)cc1` (stereo not drawn) the Potency [1] was “inactive”, the Potency [2] was inconclusive: 0.0526 µM [rising, full curve, poor fit] and the Potency [8] was inconclusive: 0.148 µM [cytotoxic, full curve, poor fit]. The Potency [7] was inconclusive: 37.2 µM [cytotoxic, single point], the Potency [9] was inconclusive: 33.2 µM [cytotoxic, single point] and the Potency [6] was inconclusive: 7.43 µM [falling, partial curve, poor fit].

For `CC(NCCc1ccc(O)cc1)C(O)c1ccc(O)cc1` (stereo not drawn), the Potency [1] was inconclusive: 0.132 µM [cytotoxic, full curve, poor fit], the Potency [2] was inconclusive: 0.105 µM [rising, full curve, poor fit] and the Potency [5] was “inactive”. The Potency [7] was “inactive”.

In the case of `CCCCCCCCCCCCCCCC(=O)O[C@H]1[C@@H](O)[C@@H](O)[C@@H]([C@H](NC(=O)[C@@H]2C[C@@H](CCC)CN2C)[C@H](C)Cl)O[C@@H]1SC`, the Potency [1] is reported as “inactive”, the Potency [2] is reported as inconclusive: 0.166 µM [cytotoxic, partial curve, poor fit] and the Potency [8] is reported as “inactive”. The Potency [5] was “inactive” and the Potency [6] was inconclusive: 18.7 µM [falling, partial curve].

In the case of `COc1c(C)c2c(c(O)c1CC=C(C)CCC(=O)OCCN1CCOCC1)C(=O)OC2`, the Potency [1] is reported as inconclusive: 5.26 µM [cytotoxic, full curve, poor fit], the Potency [2] is reported as inconclusive: 16.6 µM [cytotoxic, partial curve, poor fit] and the Potency [8] is reported as inconclusive: 11.8 µM [cytotoxic, partial curve, poor fit]. For the same compound, the Potency [5] was active: 13.2 µM, the Potency [7] was inconclusive: 2.35 µM [cytotoxic, full curve] and the Potency [6] was inconclusive: 3.32 µM [falling, full curve].

With `C[C@@]12C[C@@]3(O)O[C@@H](O1)[C@]1(COC(=O)c4ccccc4)[C@@H]3C[C@@]12O[C@@H]1O[C@H](CO)[C@@H](O)[C@H](O)[C@@H]1O` the Potency [1] was active: 2.64 µM, the Potency [2] was inconclusive: 0.0105 µM [cytotoxic, full curve, poor fit] and the Potency [3] was “inactive”. For the same compound, the Potency [10] was “inactive”, the Potency [11] was inconclusive: 0.0631 µM [inhibitor, full curve] and the Potency [12] was inconclusive: 31.6 µM [inhibitor, partial curve, poor fit]. The Potency [13] was inconclusive: 31.6 µM [activator, partial curve, poor fit].
